Some of these results come from one statement about several compounds together.
What was measured:
Type in all cases: in vivo
Myzus persicae [1] = assay: Myzus persicae (green peach aphid) sunflower leaf disc spray test; settings: sunflower leaf discs sprayed at 200 ppm; mixed ages; 6 DAT; mortality
Myzus persicae [2] = assay: Myzus persicae (green peach aphid) pea seedling root uptake test; settings: roots of infested pea seedlings in test solutions of 24 ppm; 6 days; mortality
Tetranychus urticae = Tetranychus urticae (two-spotted spider mite) bean leaf disc spray test; settings: bean leaf discs sprayed at 200 ppm; mixed ages; 8 days; egg, larval and adult mortality

COCC(Oc1cccc(C)c1Cl)C1=NCCN1 (stereo not drawn) [1.059, 2-[1-(2-chloro-3-methyl-phenoxy)-2-methoxy-ethyl]-4,5-dihydro-1H-imidazole]
at least 80%: control of Myzus persicae (Myzus persicae [1]) | control of Myzus persicae (Myzus persicae [2]) | control of Tetranychus urticae (Tetranychus urticae)

Cc1cccc(OC(CCF)C2=NCCN2)c1C (stereo not drawn) [I-126, 2-[1-(2,3-Dimethyl-phenoxy)-3-fluoro-propyl]-4,5-dihydro-1H-imidazole]
at least 80%: control of Myzus persicae (Myzus persicae [1]) | control of Myzus persicae (Myzus persicae [2]) | control of Tetranychus urticae (Tetranychus urticae)

Reference: patent US8110593B2, “Phenoxymethyl imidazoline derivatives and their use as pesticides” (Syngenta Crop Protection LLC, priority 2007, dated 2012)
